Test [1] deals with T1, Myc-TRAIP wild type (UniProt Q9BWF2).
T1 sequence: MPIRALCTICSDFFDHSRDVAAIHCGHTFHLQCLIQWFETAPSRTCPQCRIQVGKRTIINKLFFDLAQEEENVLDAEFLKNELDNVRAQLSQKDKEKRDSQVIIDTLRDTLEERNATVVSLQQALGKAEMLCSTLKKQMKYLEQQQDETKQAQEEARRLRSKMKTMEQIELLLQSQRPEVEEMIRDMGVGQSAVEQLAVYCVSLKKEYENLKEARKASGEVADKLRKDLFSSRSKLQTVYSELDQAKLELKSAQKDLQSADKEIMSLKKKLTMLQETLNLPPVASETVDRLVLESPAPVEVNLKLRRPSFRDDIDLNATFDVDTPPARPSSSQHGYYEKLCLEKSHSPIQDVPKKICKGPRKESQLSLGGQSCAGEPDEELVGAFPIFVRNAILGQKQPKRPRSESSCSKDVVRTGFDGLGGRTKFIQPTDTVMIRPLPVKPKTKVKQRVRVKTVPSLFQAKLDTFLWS
In words: co-IP; 293T cells co-transfected with Myc-TRAIP and GFP-ZNF212 WT, deletion mutants or NLS-fragments; 24 h; lysates with benzonase; IP with anti-Myc bead, immunoblot. For orientation: In western blotting, separated proteins are transferred to a membrane and probed.

Sequences of proteins named here, by UniProt entry; tags and fusion partners are left off. A change or cut given only in a name is not applied to a line headed by its entry.
UniProt Q9UDV6: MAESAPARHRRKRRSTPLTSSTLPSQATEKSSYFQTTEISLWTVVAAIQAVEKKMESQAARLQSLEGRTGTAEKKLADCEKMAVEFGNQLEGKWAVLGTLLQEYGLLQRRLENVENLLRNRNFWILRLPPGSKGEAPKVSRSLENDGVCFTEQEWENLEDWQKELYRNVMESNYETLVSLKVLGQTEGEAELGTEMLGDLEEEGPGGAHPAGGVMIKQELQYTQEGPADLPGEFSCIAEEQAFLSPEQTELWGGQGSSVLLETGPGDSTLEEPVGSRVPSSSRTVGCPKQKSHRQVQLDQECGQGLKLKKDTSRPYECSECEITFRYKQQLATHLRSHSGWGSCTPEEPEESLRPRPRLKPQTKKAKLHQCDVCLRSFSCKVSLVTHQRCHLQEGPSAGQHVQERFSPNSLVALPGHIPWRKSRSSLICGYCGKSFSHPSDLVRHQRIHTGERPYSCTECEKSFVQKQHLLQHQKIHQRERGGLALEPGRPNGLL

For test [2], the target named is T2, endogenous TRAIP (UniProt Q9BWF2).
T2 sequence: T1 sequence
The experiment in a line: co-IP; endogenous proteins; IP with benzonase using rabbit IgG or anti-TRAIP antibodies, Western blot with ZNF212 specific antibody.

No constants are given. Whether binding was seen depends on the method and setting. In cells and extracts the contact can be indirect. Some results given as binding are weak or reduced against the parent protein; the word gives no strength. For some assays here: Where a sequence is shown, tags or fusion partners need not be part of it.

In the case of “amino acid residues 1–40 of ZNF212 (from UniProt Q9UDV6 1-40) (domain or fragment)”, the binding entry in test [1] is reported as “no binding”.
Take “endogenous ZNF212 (from UniProt Q9UDV6 1-495)”: the binding entry in test [2] is given as “binds”.

Source of the values: paper PMC9881131.
